Results reported in publication PMC7896051.
Results are given in words; binding and its absence hold for the method and conditions named. Binding seen in cells or lysates may run through a third protein. Some results given as binding are weak or reduced against the parent protein; the word gives no strength. For part of these data: Where a sequence is shown, tags or fusion partners need not be part of it. Blank lines part the entries; values can stand above or below the binder they belong to.

Key:
[1] = target: T1, SuFu, endogenous in HT-29 cells (human (endogenous in HT-29)) (UniProt Q9UMX1); assay: co-IP; endogenous proteins; HT-29 cell lysates with the indicated antibodies and protein-A/G beads overnight; bound proteins by immunoblot
T1 sequence: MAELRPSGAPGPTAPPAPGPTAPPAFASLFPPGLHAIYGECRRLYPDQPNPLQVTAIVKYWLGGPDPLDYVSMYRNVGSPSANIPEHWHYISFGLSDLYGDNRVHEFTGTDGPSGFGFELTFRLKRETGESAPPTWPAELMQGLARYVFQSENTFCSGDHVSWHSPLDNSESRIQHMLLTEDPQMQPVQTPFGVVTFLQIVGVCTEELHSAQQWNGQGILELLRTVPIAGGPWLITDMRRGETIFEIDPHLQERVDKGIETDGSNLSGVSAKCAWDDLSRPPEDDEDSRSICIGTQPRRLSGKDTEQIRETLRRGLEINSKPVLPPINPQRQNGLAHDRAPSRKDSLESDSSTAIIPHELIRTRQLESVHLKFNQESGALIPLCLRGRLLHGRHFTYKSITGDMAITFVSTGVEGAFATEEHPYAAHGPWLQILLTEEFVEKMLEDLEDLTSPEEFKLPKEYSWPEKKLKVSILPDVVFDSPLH

[2] = target: T2, LNX1, endogenous in HT-29 cells (human (endogenous in HT-29)) (UniProt Q8TBB1); assay: as above
T2 sequence: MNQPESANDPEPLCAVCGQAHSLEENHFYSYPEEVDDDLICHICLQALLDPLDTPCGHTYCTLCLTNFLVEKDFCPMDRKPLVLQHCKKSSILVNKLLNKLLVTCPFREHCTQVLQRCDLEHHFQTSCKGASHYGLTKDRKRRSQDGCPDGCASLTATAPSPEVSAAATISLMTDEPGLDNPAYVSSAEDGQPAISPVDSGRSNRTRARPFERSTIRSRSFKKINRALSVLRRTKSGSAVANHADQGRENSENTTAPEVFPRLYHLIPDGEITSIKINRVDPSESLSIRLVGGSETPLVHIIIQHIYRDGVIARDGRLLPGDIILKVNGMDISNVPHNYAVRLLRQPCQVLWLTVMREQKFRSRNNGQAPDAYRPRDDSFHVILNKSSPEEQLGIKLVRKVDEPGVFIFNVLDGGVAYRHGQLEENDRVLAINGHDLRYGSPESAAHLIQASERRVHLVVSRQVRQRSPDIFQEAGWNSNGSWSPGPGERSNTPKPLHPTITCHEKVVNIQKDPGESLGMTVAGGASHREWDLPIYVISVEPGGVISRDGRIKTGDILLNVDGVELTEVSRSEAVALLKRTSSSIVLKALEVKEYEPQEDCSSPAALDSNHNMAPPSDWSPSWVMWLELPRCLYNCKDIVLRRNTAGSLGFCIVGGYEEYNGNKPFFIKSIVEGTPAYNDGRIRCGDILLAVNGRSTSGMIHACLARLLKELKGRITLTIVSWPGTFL

[3] = target: T3, GST-SNEP1 (human) (UniProt Q8TAI1); assay: pull-down; GST-SNEP1 from E. coli on glutathione-Sepharose 4B beads, incubated with lysates of transfected HEK-293T cells; bound proteins by immunoblot; only the target purified
T3 sequence: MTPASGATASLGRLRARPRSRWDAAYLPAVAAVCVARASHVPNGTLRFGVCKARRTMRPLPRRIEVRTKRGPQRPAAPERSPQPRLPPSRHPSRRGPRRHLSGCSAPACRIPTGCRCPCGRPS

[4] = target: T4, Flag-LNX1 (UniProt Q8TBB1); assay: co-IP; HEK-293T cells transfected with GFP-SNEP1 and Flag-SuFu or Flag-LNX1 for 48 h; immunoprecipitation and immunoblot
T4 sequence: T2 sequence

[5] = target: T5, Flag-SuFu (human) (UniProt Q9UMX1); assay: as above
T5 sequence: T1 sequence

[6] = target: T6, SuFu fragment aa110–174 (human) (UniProt Q9UMX1); assay: pull-down; SNEP1 pulled down by the aa110–174 fragment of SuFu (Fig. S3G); format not shown
T6 sequence: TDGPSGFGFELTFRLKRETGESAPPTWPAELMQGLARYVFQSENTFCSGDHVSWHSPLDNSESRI

B3: GFP-SNEP1 (protein, UniProt Q8TAI1 1-123)
chain: T3 sequence
binding [4]: binds
binding [5]: binds

B4: SNEP1 (construct of the domain-mapping experiments, Figs. S3E–H and S4A–D, not told) (protein, UniProt Q8TAI1 1-123)
chain: T3 sequence
binding [6]: binds

Other lines, results leading:

binding [1]: binds
binding [2]: binds
B1: SNEP1, endogenous in HT-29 cells (protein, UniProt Q8TAI1 1-123)
chain: T3 sequence

binding [3]: binds
B2: Flag-LNX1 (enzyme, UniProt Q8TBB1 1-728)
chain: T2 sequence
